Laboratory results published in publication doi:10.1101/2022.02.10.479907.
Results are given in words; binding and its absence hold for the method and conditions named.

How the values were obtained:
[1] = target: SaroL-1 from Salpingoeca rosetta (Salpingoeca rosetta) (UniProt F2UID9); test: SEC-MALS
[2] = target: SaroL-1 from Salpingoeca rosetta (Salpingoeca rosetta) (UniProt F2UID9); test: crystal structure

B1: SaroL-1 from Salpingoeca rosetta (protein, UniProt F2UID9 1-329)
chain: MSSTFEPATDSPLPVPGVQYFLQHVQSGKYVHPHGGSDMPGNDTALVLHHGFDEKRDALRWVFVNDAENKHQLKHYSSGKFVHPKGGKVGKEATLVVHSSPGRPETMIEMVQEDGRTYLRHTDSDYYVHPHGGSPNPGDNTRLVYYSGYRPSLAFLAIPAETLFVDRIEIHQAQALESINTITSLSDEHRNDTDQPVQTSISVALEESLQDSAQLSFERCFGLKVGSEFEVGLPLVGKTKVSVQFSGSWKSSTIKGEVRTSAVKVQINEHVTIPPGKCVQIRIDTRRCTKTAPATMYLRTASGIEVQRETTVTSTYHYDQEVHVVPVTN
[1]
  binding: no binding
[2]
  binding: no binding
